In PubChem BioAssay AID662 (National Center for Advancing Translational Sciences (NCATS), 2007) one finds AC50 data, which are given here for 69 molecules.

A word on the AC50: it is the midpoint of the concentration-response curve, whichever way the signal moves.

The other results are listed elsewhere or left out. Further columns of the screen follow, without active or inactive calls. Compounds called inactive in the main read-out are mostly missing here. The note in brackets gives the kind of curve behind each potency; many fits are weak.

The assay in a line: Cell signaling CRE-BLA (Fsk stim). Particulars: CHO CRE-bla reporter (cAMP response element driving beta-lactamase), forskolin EC10, beta-lactamase ratio; measured here: 460 nm blue channel. In a few lines: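 Cells were plated overnight at 37 °C, exposed to compound titrations plus EC10 NKH 477 for 3 h, then given CCF4 dye for 2 h at room temperature. Blue/green (460/530 nm) ratio was converted to %Activity and AC50 values calculated.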
As for `Cc1csc(NC(=O)c2sc3nc(-c4cccs4)ccc3c2N)n1`, the AC50 was 12.6 µM [rising, partial curve].
For the molecule `CCC(=O)N1CCc2cc(S(=O)(=O)N3CCc4ccccc43)ccc21`, the AC50 is 5.01 µM [rising, single point].
Then `O=C(NC1CCCCC1)C1CCCN(S(=O)(=O)c2cccs2)C1` (centres undefined), with 0.0794 µM [falling, full curve]; and `N#CCC(=O)Nc1sc2c(c1C(N)=O)CCCC2`, with 12.6 µM [rising, partial curve].
Then `COc1cccc(C2C3CN(C)CC=C3C(C#N)=C(N)C2(C#N)C#N)c1OC` (centres undefined), with 12.6 µM [rising, partial curve].
The value for `O=C(OCc1c(Cl)nc2sccn12)c1cc2c(s1)CCCC2` was 0.794 µM [falling, partial curve].
With `CCCOc1ccc2c(C)c(CC(=O)OC)c(=O)oc2c1`, the AC50 is 2.51 µM [rising, partial curve, poor fit].
Then `O=C(CN1C(=O)C2C3C=CC(C3)C2C1=O)N1CC=C(c2ccccc2)CC1` (centres undefined), with 0.00631 µM [falling, full curve]; and `O=C(O)CCc1ccc(-c2ccc(Cl)cc2)n1CC(=O)O`, with 2 µM [rising, partial curve]; and `CN(Cc1ccco1)c1cc(-c2ccc3c(c2)OCO3)ncn1`, with 3.16 µM [rising, full curve].
For the molecule `Cc1ccc(CCNC(=O)CN2C(=O)COc3ccccc32)cc1`, the AC50 is 0.00398 µM [falling, full curve, poor fit].
The value for `O=C1c2ccccc2C(Nc2ccc3c(c2)OCCO3)N1Cc1ccc2c(c1)OCO2` (centres undefined) was 25.1 µM [falling, single point].
The value for `CCCS(=O)(=O)N1CCC(C(=O)NC2CCC(C)CC2)CC1` (centres undefined) was 0.158 µM [falling, full curve]; that for `O=c1c2c3nc4ccccc4nc3n(-c3cccc(F)c3)c2ncn1Cc1ccc2c(c1)OCO2` was 6.31 µM [rising, partial curve]; that for `CCn1nc(-c2ccccc2)c2nc3ccccc3nc21` was 15.8 µM [rising, partial curve].
Turning to `Cc1cc(NCCCN2CCOCC2)n2nc(C)c(-c3ccccc3)c2n1`, the AC50 was 0.0794 µM [falling, partial curve].
Then `CN(C)c1ccc(-c2nc(NCc3cccnc3)c3ccccc3n2)cc1`, with 10 µM [rising, partial curve].
The value for `O=C(CCCCCN1C(=O)c2ccccc2C1=O)Nc1nccs1` was 10 µM [rising, single point].
The value for `COc1ccc(-c2nnc3ccc(SCC(=O)N4CCN(c5ccccc5)CC4)nn23)cc1OC` was 1.58 µM [rising, partial curve].
As to `O=c1[nH]c(CN2CCN(c3ccccc3)CC2)nc2ccccc12`, the AC50 was 5.01 µM [falling, partial curve, poor fit].
Then `COCC(=O)Nc1sc2c(c1C(=O)OC)C(C(=O)OC)CC2` (centres undefined), with 25.1 µM [rising, single point]; and `CCOC(=O)Cn1cnc2c(nnn2-c2ccc(C)cc2)c1=O`, with 12.6 µM [rising, partial curve]; and `COc1ccccc1C1CC(c2ccc(Cl)cc2Cl)Nc2nc(N)nn21` (centres undefined), with 12.6 µM [rising, single point].
The value for `CC(=O)N1CCN(c2ccccc2NC(=O)COc2ccc(Cl)cc2Cl)CC1` was 5.01 µM [rising, partial curve]; that for `CCN(CC)CCOc1cc2c(nn1)Oc1ccccc1N2C` was 0.501 µM [falling, partial curve]; that for `C=CCn1c(SCc2ccccc2C#N)nnc1-c1cc(Br)ccc1O` was 20 µM [falling, single point].
Then `Cc1ccc(C)c(N2CCN(Cc3nnnn3C3CCCCC3)CC2)c1`, with 12.6 µM [rising, single point].
Regarding `CN(C)c1ccc(-n2cc3c(=O)n(C)c(=O)n(C)c3c2)cc1`, the AC50 is 10 µM [rising, partial curve].
The value for `CCC(O)CNc1nc(-n2nc(C)cc2C)nc2sc3c(c12)CCCC3` (centres undefined) was 0.631 µM [rising, full curve]; that for `COc1ccccc1-c1cc(=O)c2cc(O)ccc2o1` was 2.51 µM [rising, partial curve, poor fit]; that for `Cn1c(=O)c(CCc2ccccc2)nc2cnc(N3CCOCC3)nc21` was 12.6 µM [rising, partial curve].
Turning to `CCOC(=O)c1sc(NC(C)=O)cc1C`, the AC50 was 10 µM [rising, partial curve].
As for `CCn1c(=O)cc(OCC(=O)NCc2cccnc2)c2ccccc21`, the AC50 was 10 µM [rising, single point].
In the case of `CCNc1ncc2nc(-c3ccc(F)cc3)c(=O)n(Cc3ccc(F)cc3)c2n1`, the AC50 is 15.8 µM [rising, partial curve].
The value for `Cn1c(C(C#N)C2=C(Cl)C(=O)N(c3ccccc3)C2=O)nc2ccccc21` (centres undefined) was 12.6 µM [falling, partial curve].
The value for `CCS(=O)(=O)N1CCC(C(=O)Nc2cc(Cl)ccc2O)CC1` was 0.00398 µM [falling, full curve, poor fit]; that for `CC(C)c1nc(SCc2ccccn2)c2c(=O)n(C)c(=O)n(C)c2n1` was 5.01 µM [rising, partial curve].
Then `Cc1cc(Oc2ccc(Cl)cc2)nc(-c2ccccc2O)n1`, with 7.94 µM [rising, partial curve]; and `CCOC(=O)C(C)Oc1ccc(C2NC(=O)NC(C)=C2C(C)=O)cc1Br` (centres undefined), with 12.6 µM [falling, partial curve].
Consider `COC(=O)C1=CNC=C(C(=O)OC)C1c1ccc(C(=O)OC)cc1`, for which the AC50 was 12.6 µM [rising, partial curve].
`O=C(c1cc(-c2ccc(O)cc2)on1)N1CCc2ccccc2C1`: the AC50 is 10 µM [falling, partial curve].
Then `COC(=O)c1ccc(CSc2nc(C(F)(F)F)c3c(c2C#N)CCC3)o1`, with 10 µM [rising, partial curve]; and `COc1cccc(-c2nc(NCc3cnc(C)cn3)c3ccccc3n2)c1`, with 10 µM [rising, partial curve].
Then `CC(C(=O)N1CCc2ccccc21)N1CCc2ccccc2C1` (centres undefined), with 10 µM [falling, partial curve]; and `CC(=O)C1=C(C)NC(SCC(=O)c2ccc(Cl)cc2Cl)=C(C#N)C1c1ccco1` (centres undefined), with 3.98 µM [rising, single point]; and `CCn1c(SCc2nc3ccccc3s2)nnc1-c1cccs1`, with 5.01 µM [falling, single point].
The value for `CCOC(=O)N1CCC(NC(=O)c2cc3c(=O)n(C)c4ccccc4c3n2C)CC1` was 5.01 µM [rising, partial curve]; that for `Cc1cc(C)n(-c2c(F)c(F)c(CN3CCOCC3)c(F)c2F)n1` was 2.51 µM [falling, full curve, poor fit].
`CCCCNC(=O)c1cc2c(=O)n3cccc(C)c3nc2n(Cc2ccncc2)c1=N`: the AC50 is 5.01 µM [rising, partial curve].
Consider `O=c1c(/C=N/O)c(Nc2ccccc2)nc2ccccn12`, for which the AC50 is 6.31 µM [rising, partial curve].
Then `Nc1nc2sc3c(c2cc1C(=O)N1CCOCC1)CCCC3`, with 0.00316 µM [falling, full curve, poor fit].
Take `CC1CCCCN1CCNC(=O)c1cc2c(=O)n(C)c3ccccc3c2n1C` (centres undefined): the AC50 was 7.94 µM [rising, partial curve].
Then `COC(=O)c1c(-c2cc(OC)c(OC)c(OC)c2)c2ccnc(OCc3ncccn3)c2c(=O)n1Cc1ccnc(C)c1`, with 0.0316 µM [rising, full curve, poor fit]; and `CCSc1nnc(NC(=O)c2ccccn2)s1`, with 12.6 µM [falling, single point].
The value for `O=C1Nc2cc3c(cc2Sc2ccccc21)OCCO3` was 3.98 µM [falling, single point].
Then `O=C(c1c(F)cccc1F)N1CCN(c2ccccc2F)CC1`, with 0.01 µM [falling, full curve, poor fit].
Turning to `O=C1c2ccccc2C(=O)N1CCCSc1ccccc1`, the AC50 is 3.98 µM [rising, single point].
The value for `Cc1cc(C)n(-c2nc(NCCCO)c3c4c(sc3n2)CCCC4)n1` was 1.26 µM [rising, full curve]; that for `CCC1CCCCN1CCCNC(=O)CNC(=O)Cn1ccc2ccccc2c1=O` (centres undefined) was 12.6 µM [rising, single point].
Then `COc1cc(C)c(CNc2ccc(OC)c(OC)c2)cc1C`, with 1 µM [falling, partial curve, poor fit]; and `CCNC(=O)NC(=O)C(C)OC(=O)c1cccnc1SC` (centres undefined), with 2.51 µM [falling, partial curve].
Then `COc1ccc(-c2nc3cnc(OC)nc3n(C3CC3)c2=O)cc1`, with 3.16 µM [rising, partial curve, poor fit].
For the molecule `O=S(=O)(Nc1cccnc1)c1ccc2c(c1)OCCO2`, the AC50 is 3.98 µM [falling, single point].
The value for `C/C(=N\O)c1ccc(N2C(=O)C3CC=C(Cl)CC3C2=O)cc1` (centres undefined) was 0.158 µM [rising, full curve, poor fit].
Regarding `COc1cc2c(cc1O)C(SC)=NC(C)(C)C2`, the AC50 is 12.6 µM [falling, single point].
Then `COC(=O)c1sccc1NC(=O)c1ccc(OC)cc1`, with 25.1 µM [rising, single point].
The value for `CCc1nn(-c2cc(Cl)ccc2OC)c2c1C(=O)CCC2` was 12.6 µM [rising, partial curve]; that for `Cn1nc(C(=O)Nc2sccc2C(N)=O)ccc1=O` was 0.316 µM [falling, full curve]; that for `CCn1c(CSc2nc(C)cc(C)n2)nnc1SCC(=O)N1CCCc2ccccc21` was 12.6 µM [rising, single point].
